PubChem BioAssay AID186 (DTP/NCI, 2004)
Values are animals surviving of animals treated; these mice carried no tumour. Survivors were counted at the toxicity check, usually on the fifth day, unless a day is given; later deaths do not show. Schedule codes are those of the source, read here as Q, the interval in days (D) or hours (H), X, the number of doses.

System: B6D2F1 mice, nontumored toxicity test, survival
Assay: NCI In Vivo Anticancer Drug Screen. Data for tumor model Nontumored Animals (Toxicity Test) in B6D2F1 (BDF1) mice

SMILES: O=c1[nH]c(=O)n([C@H]2CCCO2)cc1F
- survivor count (dose: 28.1 mg/kg/injection, schedule: Q01DX032 (other), vehicle: water): 6 of 6
- survivor count (dose: 35.2 mg/kg/injection, schedule: Q01DX032 (other), vehicle: water): 6 of 6
- survivor count (dose: 38.9 mg/kg/injection, schedule: Q01DX012 (sc), vehicle: clinical formulation): 6 of 6
- survivor count (dose: 44.0 mg/kg/injection, schedule: Q01DX016 (other), vehicle: water): 6 of 6
- survivor count (dose: 44.0 mg/kg/injection, schedule: Q01DX032 (other), vehicle: water): 6 of 6
- survivor count (dose: 55.0 mg/kg/injection, schedule: Q01DX012 (other), vehicle: water): 6 of 6
- survivor count (dose: 55.0 mg/kg/injection, schedule: Q01DX016 (other), vehicle: water): 6 of 6
- survivor count (dose: 55.0 mg/kg/injection, schedule: Q01DX032 (other), vehicle: water): 6 of 6
- survivor count (dose: 68.7 mg/kg/injection, schedule: Q01DX008 (other), vehicle: water): 6 of 6
- survivor count (dose: 68.7 mg/kg/injection, schedule: Q01DX012 (other), vehicle: water): 6 of 6
- survivor count (dose: 68.7 mg/kg/injection, schedule: Q01DX016 (other), vehicle: water): 6 of 6
- survivor count (dose: 68.7 mg/kg/injection, schedule: Q01DX032 (other), vehicle: water): 6 of 6
- survivor count (dose: 85.9 mg/kg/injection, schedule: Q01DX006 (other), vehicle: water): 6 of 6
- survivor count (dose: 85.9 mg/kg/injection, schedule: Q01DX008 (other), vehicle: water): 6 of 6
- survivor count (dose: 85.9 mg/kg/injection, schedule: Q01DX012 (other), vehicle: water): 6 of 6
- survivor count (dose: 85.9 mg/kg/injection, schedule: Q01DX016 (other), vehicle: water): 6 of 6
- survivor count (dose: 85.9 mg/kg/injection, schedule: Q01DX032 (other), vehicle: water): 6 of 6
- survivor count (dose: 100.0 mg/kg/injection, schedule: Q01DX001 (ip), vehicle: other): 6 of 6
- survivor count (dose: 105.0 mg/kg/injection, schedule: Q01DX012 (sc), vehicle: clinical formulation): 6 of 6
- survivor count (dose: 107.0 mg/kg/injection, schedule: Q01DX004 (other), vehicle: water): 6 of 6
- survivor count (dose: 107.0 mg/kg/injection, schedule: Q01DX006 (other), vehicle: water): 6 of 6
- survivor count (dose: 107.0 mg/kg/injection, schedule: Q01DX008 (other), vehicle: water): 6 of 6
- survivor count (dose: 107.0 mg/kg/injection, schedule: Q01DX012 (other), vehicle: water): 6 of 6
- survivor count (dose: 107.0 mg/kg/injection, schedule: Q01DX016 (other), vehicle: water): 6 of 6
- survivor count (dose: 107.0 mg/kg/injection, schedule: Q01DX032 (other), vehicle: water): 6 of 6
- survivor count (dose: 131.0 mg/kg/injection, schedule: Q01DX005 (sc), vehicle: clinical formulation): 6 of 6
- survivor count (dose: 131.0 mg/kg/injection, schedule: Q01DX012 (sc), vehicle: clinical formulation): 6 of 6
- survivor count (dose: 134.0 mg/kg/injection, schedule: Q01DX004 (other), vehicle: water): 6 of 6
- survivor count (dose: 134.0 mg/kg/injection, schedule: Q01DX006 (other), vehicle: water): 6 of 6
- survivor count (dose: 134.0 mg/kg/injection, schedule: Q01DX008 (other), vehicle: water): 6 of 6
- survivor count (dose: 134.0 mg/kg/injection, schedule: Q01DX012 (other), vehicle: water): 6 of 6
- survivor count (dose: 134.0 mg/kg/injection, schedule: Q01DX016 (other), vehicle: water): 6 of 6
- survivor count (dose: 134.0 mg/kg/injection, schedule: Q01DX032 (other), vehicle: water): 6 of 6
- survivor count (dose: 164.0 mg/kg/injection, schedule: Q01DX005 (sc), vehicle: clinical formulation): 6 of 6
- survivor count (dose: 164.0 mg/kg/injection, schedule: Q01DX012 (sc), vehicle: clinical formulation): 6 of 6
- survivor count (dose: 168.0 mg/kg/injection, schedule: Q01DX001 (other), vehicle: water): 6 of 6
- survivor count (dose: 168.0 mg/kg/injection, schedule: Q01DX002 (other), vehicle: water): 6 of 6
- survivor count (dose: 168.0 mg/kg/injection, schedule: Q01DX004 (other), vehicle: water): 6 of 6
- survivor count (dose: 168.0 mg/kg/injection, schedule: Q01DX006 (other), vehicle: water): 6 of 6
- survivor count (dose: 168.0 mg/kg/injection, schedule: Q01DX008 (other), vehicle: water): 6 of 6
- survivor count (dose: 168.0 mg/kg/injection, schedule: Q01DX012 (other), vehicle: water): 6 of 6
- survivor count (dose: 168.0 mg/kg/injection, schedule: Q01DX016 (other), vehicle: water): 6 of 6
- survivor count (dose: 200.0 mg/kg/injection, schedule: Q01DX001 (ip), vehicle: Klucel (hydroxypropylcellulose) (HPC)): 5 of 6
- survivor count (dose: 200.0 mg/kg/injection, schedule: Q01DX001 (ip), vehicle: other): 6 of 6
- survivor count (dose: 205.0 mg/kg/injection, schedule: Q01DX002 (sc), vehicle: clinical formulation): 6 of 6
- survivor count (dose: 205.0 mg/kg/injection, schedule: Q01DX005 (sc), vehicle: clinical formulation): 6 of 6
- survivor count (dose: 205.0 mg/kg/injection, schedule: Q01DX012 (sc), vehicle: clinical formulation): 6 of 6
- survivor count (dose: 210.0 mg/kg/injection, schedule: Q01DX001 (other), vehicle: water): 6 of 6
- survivor count (dose: 210.0 mg/kg/injection, schedule: Q01DX002 (other), vehicle: water): 5 of 6
- survivor count (dose: 210.0 mg/kg/injection, schedule: Q01DX004 (other), vehicle: water): 6 of 6
- survivor count (dose: 210.0 mg/kg/injection, schedule: Q01DX006 (other), vehicle: water): 6 of 6
- survivor count (dose: 210.0 mg/kg/injection, schedule: Q01DX008 (other), vehicle: water): 6 of 6
- survivor count (dose: 210.0 mg/kg/injection, schedule: Q01DX012 (other), vehicle: water): 6 of 6
- survivor count (dose: 210.0 mg/kg/injection, schedule: Q01DX016 (other), vehicle: water): 6 of 6
- survivor count (dose: 256.0 mg/kg/injection, schedule: Q01DX002 (sc), vehicle: clinical formulation): 6 of 6
- survivor count (dose: 256.0 mg/kg/injection, schedule: Q01DX005 (sc), vehicle: clinical formulation): 6 of 6
- survivor count (dose: 262.0 mg/kg/injection, schedule: Q01DX001 (other), vehicle: water): 6 of 6
